Assay results: patent US7355063B2, “Shogaol compound and tyrosinase activity inhibitor comprising the compound” (Toagosei Co., Ltd., priority 2003, dated 2008)
At least one compound was matched to its structure with a doubt left.

Assay: Test of scavenging DPPH radical (Test Example 8, 517 nm)
Settings: final concentration of 10 μg/mL; 20 minutes, room temperature
Method: Using the compound 7 obtained in Example 2 as well as dl-α-tocopherol (manufactured by Tokyo Kasei Kogyo Co., Ltd.) and butylhydroxytoluene (BHT) as comparative controls, a test of scavenging DDPH (1,1-diphenyl-2-picrylhydrazyl) radical, a stable radical, was carried out.
1 ml of 200 μM DPPH ethanol solution was added to 800 μl of 100 mM Tris-HCl buffer (pH 7.4) and 200 μl of an ethanol solution of the compound 7 (a final concentration of 10 μg/mL), followed by sufficient stirring. After the resulting mixture was allowed to stand in a dark place at room temperature for 20 minutes, the absorbance at 517 nm was measured (absorbance of the test solution)
The compound 13 of the invention as well as dl-α-tocopherol and butylhydroxytoluene as a known radical scavenger were similarly tested.
As a control, 800 μl of 100 mM Tris-HCl buffer (pH 7.4), 200 μl of ethanol, and 1 ml of 200 μM DPPH ethanol solution were used in the same manner as described above and the absorbance was measured (absorbance of the control solution).
With the individual compounds, the same measurement was repeated three times, and the mean value was inserted in the following formula to calculate a DPPH radical-scavenging ratio (%). DPPH radical-scavenging ratio (%)=[1−(absorbance of sample solution/absorbance of control solution)]×100

Cc1cc(C(C)(C)C)c(O)c(C(C)(C)C)c1 [BHT, butylhydroxytoluene]
DPPH radical-scavenging ratio (%): 63.7%
